About 2,100 (0.66%) of roughly 320,000 compounds were called active. The shares of active, inactive and inconclusive entries below differ from those in the screen. Calls follow the shape of the dose curve; as a rule, active = well fitted inhibition curve with a large enough effect in the signal ratio, with a control signal flat (not every such curve was filed as active); inconclusive = small, poorly fitted or top-dose-only effect, or effect the other way, or a change in a side signal; inactive = flat fitted curve, though single readings scatter; the % refers to the signal ratio. Potencies beside an inconclusive call are fits to weak or partial responses and may not hold up.
Experiment: qHTS Assay for Lipid Storage Modulators in Drosophila S3 Cells
Conditions: BODIPY lipid droplet fluorescence, 18-24 h, cells fed with added oleic acid; lipid storage change, negative = inhibition: at 46.1 µM (top of the series) unless noted
In short: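 Laser-scanning cytometry quantifies lipid droplet accumulation (500–530 nm total intensity; droplet/cell object ratio) in oleic acid-fed (400 uM added) Drosophila S3 cells treated with a concentration series. 20 uM Triacsin C defined 100% inhibition.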
In the case of `CC(C)C[C@@H](COc1ccccc1)N1CCN(Cc2ccccc2)CCC1=O`, the Potency is reported as inconclusive: 29.1 µM [falling, single point]. In the case of `Cn1c(=O)c(C(=O)COC(=O)c2cc(C(F)(F)F)nc3ccccc23)c(N)n(Cc2ccccc2)c1=O`, the Potency is reported as inconclusive: 1.84 µM [activator, full curve, poor fit]. For `COc1ccc(CNC(=O)CN(Cc2ccccc2OC)C(=O)c2csnn2)cc1`, the lipid storage change, negative = inhibition was inconclusive: -43.6%. In the case of `CCOc1ccc(NC(=O)C2CCN(C(=O)C3CC(=O)N(c4ccc(C)cc4)C3)CC2)cc1` (centres undefined), the lipid storage change, negative = inhibition is reported as inconclusive: 16%. With `O=C(Nc1ccc(Cl)c([N+](=O)[O-])c1)c1ccco1` the lipid storage change, negative = inhibition was “inactive”. In the case of `Cc1ccc(Cl)cc1NC(=S)Nn1cnnc1`, the Potency is reported as inconclusive: 29.1 µM [activator, single point]. In the case of `COc1cccc(C(=O)NCCC(=O)NCc2cc(=O)n(C)c(=O)n2C)c1`, the Potency is reported as inconclusive: 0.058 µM [falling, full curve, poor fit]. For `O=C(NC(=S)Nc1ccc2[nH]c(=O)[nH]c2c1)c1ccccc1[N+](=O)[O-]`, the lipid storage change, negative = inhibition was inconclusive: -56.1%. With `CCOC(=O)C1(CC2CC2)CCN(Cc2cnc(-c3ccccc3C)nc2)CC1` the lipid storage change, negative = inhibition was inconclusive: -8.83%. For `Cc1cccc(C(=O)NCC(=O)N2CCCCCCC2)c1`, the Potency was inconclusive: 29.1 µM [falling, single point]. In the case of `O=C(/C=C/c1ccccc1Cl)c1cccnc1`, the Potency is reported as inconclusive: 6.51 µM [falling, single point]. In the case of `Cc1cccc(-c2ccc(C=Nc3c(C)n(C)n(-c4ccccc4)c3=O)o2)c1`, the lipid storage change, negative = inhibition is reported as inconclusive: -6.47%. For `Cc1nnc(C)n1/N=C/c1cccc([N+](=O)[O-])c1`, the lipid storage change, negative = inhibition was inconclusive: -0.372%. For `COc1cccc(C(=O)NCc2ccccc2OC)c1`, the Potency was inconclusive: 3.66 µM [activator, partial curve, poor fit]. In the case of `O=C1CSc2ccc(S(=O)(=O)CCC(=O)NC3CCCCC3)cc2N1`, the Potency is reported as inconclusive: 29.1 µM [activator, single point]. With `CCn1c(SCC(=O)N/N=C/c2c[nH]c3ccccc23)nnc1-c1ccc(Cl)cc1` the lipid storage change, negative = inhibition was inconclusive: 20.4%. In the case of `CCc1ccc(NC(=O)C2=CC=CN3CCS(=O)(=O)N=C23)cc1`, the Potency is reported as inconclusive: 20.6 µM [activator, partial curve]. With `CCOC(=O)C1CCN(C(=O)COc2ccc(S(=O)(=O)N3CCOCC3)cc2C)CC1` the Potency was inconclusive: 29.1 µM [falling, single point]. With `C=CCn1c(CSc2ccccc2[N+](=O)[O-])n[nH]c1=S` the lipid storage change, negative = inhibition was inconclusive: -3.54%. For `CC1CCN(C(=S)NC(=O)c2ccc(C(C)(C)C)cc2)CC1`, the Potency was inconclusive: 2.06 µM [activator, partial curve]. For `COc1ccc(CC(=O)NC(C)c2nnc(SCCC(=O)Nc3ccccc3)n2C)cc1` (centres undefined), the lipid storage change, negative = inhibition was inconclusive: 5.74%. With `Cc1cccc(NC2=C(C#N)C(=O)NC3(CCCC3)S2)c1` the lipid storage change, negative = inhibition was inconclusive: -7.72%. In the case of `CCCNC(=O)C1CN(C(=O)c2nn(Cc3ccccc3)c(=O)c3ccccc23)c2ccccc2O1` (centres undefined), the lipid storage change, negative = inhibition is reported as inconclusive: -11.4%. With `O=C(NC1CC1)c1ccc(CN(c2ccccc2)S(=O)(=O)c2ccccc2)cc1` the lipid storage change, negative = inhibition was inconclusive: -48.9% [cytotoxic] [at 0.00295 µM]. In the case of `O=C(Nc1ccc(O)cc1)c1ccc(NC(=O)c2cccs2)cc1`, the lipid storage change, negative = inhibition is reported as inconclusive: -100%. With `C=CCNCCCCOc1ccccc1` the lipid storage change, negative = inhibition was inconclusive: -22.6%. With `Cc1cc(C)cc(NC(=O)C2CCCN2S(=O)(=O)c2ccc3c(c2)C(C)(C)C(=O)N3C)c1` (centres undefined) the lipid storage change, negative = inhibition was inconclusive: -39.7%. In the case of `COc1ccc(NC(=O)CSc2ncnc3sc(C)cc23)cc1`, the lipid storage change, negative = inhibition is reported as inconclusive: 95%. For `COc1cc(/C=N\NC(=O)c2ccc(Cl)cc2)ccc1Oc1ccc([N+](=O)[O-])cn1`, the Potency was inconclusive: 29.1 µM [activator, single point]. For `Cc1ccc(S(=O)(=O)N(C)C)cc1NC(=S)NNC(=O)C1CC1`, the lipid storage change, negative = inhibition was inconclusive: 0.752%. In the case of `NC(=O)CN1C(=O)C2C3c4ccccc4C(c4ccccc43)C2C1=O` (centres undefined), the lipid storage change, negative = inhibition is reported as inconclusive: 18.6%. For `CCn1c(CS(=O)Cc2ccc(Cl)cc2Cl)nnc1SCc1c(Cl)cccc1Cl` (centres undefined), the lipid storage change, negative = inhibition was inconclusive: 29.1%. In the case of `O=[N+]([O-])c1ccc2nnn(O)c2c1`, the lipid storage change, negative = inhibition is reported as inconclusive: -0.337%. In the case of `CC(=O)Nc1ccc(C2NC(=S)N(c3ccccc3C(F)(F)F)C(C)=C2C(=O)N2CCOCC2)cc1` (centres undefined), the lipid storage change, negative = inhibition is reported as inconclusive: 47.5%. With `CC(=O)N1CCN(S(=O)(=O)c2c(F)cc(F)c(Cl)c2F)CC1` the lipid storage change, negative = inhibition was inconclusive: 16.8%. For `N#CCCNc1ccc(OCCC#N)cc1`, the Potency was inconclusive: 0.206 µM [falling, full curve, poor fit]. For `O=C(CCc1nc2ccccc2c(=O)[nH]1)Nc1cc(C(F)(F)F)ccc1N1CCOCC1`, the lipid storage change, negative = inhibition was “inconclusive”. With `Cn1cc(Br)c(C(=O)Nc2ncc(Br)s2)n1` the Potency was inconclusive: 29.1 µM [falling, single point]. In the case of `O=C(O)c1ccc(/C=N/n2cc(-c3ccccc3)[nH]c2=S)cc1`, the lipid storage change, negative = inhibition is reported as inconclusive: -9.58%. For `CN(C)CC(c1ccccc1)c1ccccc1`, the lipid storage change, negative = inhibition was inconclusive: 44.6%. With `CC(C)NC(=O)c1ccc2c(=O)n(CC3CCCO3)c(=S)[nH]c2c1` (centres undefined) the lipid storage change, negative = inhibition was inconclusive: 0.173%. With `Oc1cc(Nc2ccncc2)cc2cccnc12` the lipid storage change, negative = inhibition was inconclusive: 21.7%. In the case of `CCOC(=O)C(=CNc1ccc(C(F)(F)F)cc1)C(=O)OCC`, the lipid storage change, negative = inhibition is reported as “inactive”. In the case of `CCOC(=O)N1CCC(NC(=O)c2ccc3c(c2)N(Cc2ccccc2)CCS3)CC1`, the Potency is reported as inconclusive: 10.3 µM [falling, partial curve]. For `COc1ccc(CC(=O)N[C@@H](CCSC)C(=O)N2CCC3(CC2)NCCc2[nH]cnc23)cc1`, the lipid storage change, negative = inhibition was inconclusive: 41.4%. In the case of `Cc1cccc(C)c1OCc1nnc(SCC(=O)NCc2ccccc2)o1`, the lipid storage change, negative = inhibition is reported as inconclusive: 45.9%. With `O=C(O)C1CC=CCC1C(=O)Nc1ccc(S(=O)(=O)N2CCCc3ccccc32)cc1` (centres undefined) the Potency was active: 23.1 µM. For `COC(=O)Cc1c(O)ccn(C2CC2)c1=O`, the lipid storage change, negative = inhibition was inconclusive: 22.7%. With `Cc1cccc(NC(=S)NCc2cccs2)c1C` the lipid storage change, negative = inhibition was inconclusive: 33.7%.
% is scaled to controls: 0 for no effect and ±100 for the full control effect; potency is read from the fitted curve at half-maximal effect.
